Results are given in words; binding and its absence hold for the method and conditions named. In cells and extracts the contact can be indirect. Some results given as binding are weak or reduced against the parent protein; the word gives no strength.
Experiments:
[1] = biological target: Fer kinase (human (endogenous in SW620)) (UniProt P16591); test: condition: only cells treated with 2 µM E260 for 12 h; co-IP; as a2, but nuclear lysates of SW620 cells treated with 2 µM E260 (Fer/FerT inhibitor) for 12 h
[2] = biological target: Fer kinase (human (endogenous in SW620)) (UniProt P16591); test: co-IP; nuclear protein lysates (5 mg) of SW620 cells treated with vehicle or increasing concentrations of E260 for 12 h; IP of Fer with antibodies against its N-terminal tail overnight at 4 °C, protein A Sepharose; washes in Tris pH 7.5, 0.1% Triton X-100, 150 mM then 75 mM NaCl; western blot; IgG-linked beads as control

Amino acid sequences for entries named in this document (tags omitted).
UniProt P16591: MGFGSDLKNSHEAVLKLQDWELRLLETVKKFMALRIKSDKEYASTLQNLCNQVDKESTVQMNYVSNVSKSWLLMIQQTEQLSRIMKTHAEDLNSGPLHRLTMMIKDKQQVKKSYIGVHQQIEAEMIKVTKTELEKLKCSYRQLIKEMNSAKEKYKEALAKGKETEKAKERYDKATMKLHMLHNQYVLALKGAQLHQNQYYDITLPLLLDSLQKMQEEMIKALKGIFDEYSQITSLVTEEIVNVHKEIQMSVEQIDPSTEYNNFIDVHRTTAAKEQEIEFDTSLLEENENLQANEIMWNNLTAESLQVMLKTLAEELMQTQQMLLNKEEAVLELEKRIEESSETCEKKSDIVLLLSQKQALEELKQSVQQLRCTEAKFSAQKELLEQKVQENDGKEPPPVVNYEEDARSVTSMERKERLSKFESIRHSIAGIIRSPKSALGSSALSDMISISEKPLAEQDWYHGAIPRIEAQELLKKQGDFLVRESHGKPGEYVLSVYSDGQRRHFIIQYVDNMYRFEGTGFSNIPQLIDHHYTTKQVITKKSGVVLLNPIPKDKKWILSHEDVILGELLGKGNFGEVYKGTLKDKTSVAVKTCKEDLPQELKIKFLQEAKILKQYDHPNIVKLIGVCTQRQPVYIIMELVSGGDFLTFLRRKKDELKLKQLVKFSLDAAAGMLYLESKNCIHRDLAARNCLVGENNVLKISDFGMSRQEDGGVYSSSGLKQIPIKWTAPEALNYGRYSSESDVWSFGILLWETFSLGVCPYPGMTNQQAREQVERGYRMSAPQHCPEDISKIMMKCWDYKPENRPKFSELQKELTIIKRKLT
UniProt P09874: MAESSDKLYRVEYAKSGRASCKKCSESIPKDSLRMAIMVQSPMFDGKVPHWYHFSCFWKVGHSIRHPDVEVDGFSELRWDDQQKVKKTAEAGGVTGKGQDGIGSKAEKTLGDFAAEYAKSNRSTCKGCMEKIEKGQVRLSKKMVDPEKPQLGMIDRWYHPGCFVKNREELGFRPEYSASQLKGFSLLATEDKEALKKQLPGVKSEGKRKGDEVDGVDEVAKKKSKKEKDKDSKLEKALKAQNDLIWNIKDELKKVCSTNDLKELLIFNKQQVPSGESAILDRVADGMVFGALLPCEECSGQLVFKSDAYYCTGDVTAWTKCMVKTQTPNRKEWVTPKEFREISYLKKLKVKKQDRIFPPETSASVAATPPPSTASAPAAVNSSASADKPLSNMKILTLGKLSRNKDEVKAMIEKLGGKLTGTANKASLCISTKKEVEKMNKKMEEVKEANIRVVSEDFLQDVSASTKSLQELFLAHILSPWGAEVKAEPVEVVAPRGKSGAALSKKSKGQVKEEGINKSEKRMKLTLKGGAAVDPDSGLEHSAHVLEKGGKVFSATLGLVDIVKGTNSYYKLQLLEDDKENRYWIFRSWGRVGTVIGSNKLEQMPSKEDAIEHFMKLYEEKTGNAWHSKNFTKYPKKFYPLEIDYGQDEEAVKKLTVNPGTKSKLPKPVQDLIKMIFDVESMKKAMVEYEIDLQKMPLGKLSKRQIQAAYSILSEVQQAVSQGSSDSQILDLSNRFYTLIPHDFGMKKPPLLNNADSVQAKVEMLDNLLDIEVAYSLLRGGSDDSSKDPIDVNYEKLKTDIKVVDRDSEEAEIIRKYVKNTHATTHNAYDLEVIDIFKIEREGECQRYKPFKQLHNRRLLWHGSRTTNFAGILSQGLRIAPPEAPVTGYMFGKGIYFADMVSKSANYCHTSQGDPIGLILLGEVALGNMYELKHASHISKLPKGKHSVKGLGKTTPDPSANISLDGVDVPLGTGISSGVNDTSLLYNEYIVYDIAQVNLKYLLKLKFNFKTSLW

Q: What does the source list for “poly (ADP-ribose) polymerase-1 (from UniProt P09874 1-1014) (enzyme)”?
A: binding [1]: no binding; binding [2]: binds
